Results: PubChem BioAssay AID540276 (National Center for Advancing Translational Sciences (NCATS), 2011)
Among all 300,000 compounds or so, about 5,400 (1.8%) were called active. The shares of active, inactive and inconclusive entries below differ from those in the screen. The call rests on the fitted dose curve; tested in HEK293 cells. A potency beside an inconclusive call is a rough fit, not a confirmed value.

test: qHTS for inhibitors of binding or entry into cells for Marburg Virus; details: Marburg virus pseudotyped entry inhibition, cell reporter; series mostly up to 37.8 µM
Potency means the concentration at half of the fitted maximal effect.

Compound | Potency
CCOC(=O)c1cc(-c2ccc(C)cc2)n(CCC(=O)Nc2nc3c(C)cccc3s2)c1C | inconclusive: 35.5 µM [inhibitor, single point]
O=C1NC(=O)C(c2ccccc2)(c2ccc(Cl)cc2Cl)N1 (stereo not drawn) | inactive
CCC(CC)C(=O)NCc1ccccc1OC | inactive
COc1ccc(COC(=O)N/N=C2\C[C@@H](O)[C@@H](O)[C@@H]3[C@@H]4C(=O)N(c5cccc(Oc6ccccc6)c5)C(=O)[C@@H]4CC[C@@H]23)cc1 | inactive
CC(=O)Cn1nnc2sc3c(c2c1=O)CCC(C(C)(C)C)C3 (stereo not drawn) | inactive
Cc1cc(C)nc(SCC(=O)Nc2ccc(Br)cn2)n1 | inactive
Cc1cc(C)cc(N2CC(O)=C(c3nc4ccccc4c(=O)[nH]3)C2=N)c1 | inconclusive: 17.8 µM [inhibitor, single point]
CCn1cc(CN2CCN(Cc3ccsc3)C(CCO)C2)cn1 (stereo not drawn) | inactive
CCOc1ccc(NC(=S)N(CCc2c(C)[nH]c3ccc(C)cc23)Cc2ccncc2)cc1 | active: 2.31 µM
CC(C)(C)c1ccc(C(=O)NCCOc2ccccc2)cc1 | active: 1.58 µM
CSc1nc2ccc(NC(=O)c3cc4ccccc4o3)cc2s1 | inconclusive: 31.6 µM [inhibitor, single point]
CCOC(=O)N1CCC(NC(=O)c2cc3c(-c4cccc(OC)c4)nn(C)c3s2)CC1 | inactive
Cc1cc2c(cc1S(=O)(=O)NCCc1ccccc1)NC(=O)CO2 | inconclusive: 22.4 µM [inhibitor, single point]
S=C(NCCc1ccccc1)Nc1ncccn1 | inconclusive: 5.62 µM [inhibitor, single point]
O=[N+]([O-])c1ccc(NCc2ccccn2)nc1 | inconclusive: 35.5 µM [activator, single point]
Cc1cccc2cc3c(N)c(C(=O)Nc4ccc(N5CCOCC5)cc4)sc3nc12 | inconclusive: 23.1 µM [inhibitor, partial curve, poor fit]
Cc1ccccc1OCc1nnc(SC(C)C(=O)O)n1Cc1ccccc1 (stereo not drawn) | inactive
CCOC(=O)N1CCN(Cc2nc3cc(NC(C)=O)ccc3n2C(C)C)CC1 | inconclusive: 2.82 µM [inhibitor, partial curve, poor fit]
COc1cc(OC)cc(C2=NC3(CCC(C)CC3)NC2=S)c1 (stereo not drawn) | inconclusive: 0.631 µM [inhibitor, full curve, poor fit]
N#CC12CCCCC1CC1CCCCC1(C#N)N2CCO (stereo not drawn) | inactive
CCC(=O)Nc1ccc(-c2nnc(SCc3ccc(C(=O)Nc4nccs4)cc3)n2CC)cc1 | inconclusive: 35.5 µM [inhibitor, single point]
CN(C)CCn1c(C(=O)O)cc2ccccc21 | inconclusive: 0.0891 µM [activator, full curve, poor fit]
O=C(CCC(=O)N1CCC2(CC1)OCCO2)Nc1nnc(C2CCCCC2)s1 | inconclusive: 1.41 µM [inhibitor, partial curve, poor fit]
Cc1ccc(C(CNS(=O)(=O)c2cc(F)ccc2F)N2CCN(C)CC2)cc1 (stereo not drawn) | inconclusive: 35.5 µM [inhibitor, single point]
Fc1cccc(C2NCc3ccccc3-n3cccc32)c1 (stereo not drawn) | inconclusive: 17.8 µM [inhibitor, partial curve, poor fit]

Part of the list above in another layout:
Compound	Potency
S=C(NCCc1ccccc1)Nc1ncccn1	inconclusive: 5.62 µM [inhibitor, single point]
O=[N+]([O-])c1ccc(NCc2ccccn2)nc1	inconclusive: 35.5 µM [activator, single point]
Cc1cccc2cc3c(N)c(C(=O)Nc4ccc(N5CCOCC5)cc4)sc3nc12	inconclusive: 23.1 µM [inhibitor, partial curve, poor fit]

An excerpt of these results, as tab-separated lines.
Compound	Potency
CCOC(=O)c1cc(-c2ccc(C)cc2)n(CCC(=O)Nc2nc3c(C)cccc3s2)c1C	inconclusive: 35.5 µM [inhibitor, single point]
O=C1NC(=O)C(c2ccccc2)(c2ccc(Cl)cc2Cl)N1 (stereo not drawn)	inactive

Next part:

Compound | Potency
CCN(CC)C(=S)SCC(=O)Nc1nc(-c2ccccc2)c(-c2ccccc2)o1 | inconclusive: 7.08 µM [inhibitor, full curve, poor fit]
Nc1nnnn1/N=C/c1cc(Cl)cc(Cl)c1O | inactive
Cc1ccc(NC(=O)c2cnccn2)cc1 | inconclusive: 3.16 µM [activator, single point]
CCN(CC)CCn1c(NCc2ccc(OC)cc2)nc2ccccc21 | inconclusive: 20.6 µM [inhibitor, single point]
COc1ccc(NC(=O)CN2C(=O)C(c3ccc(C(C)(C)C)cc3)=NC2(C)C)cc1Cl | inactive
Cc1cc(C)c(-c2cc(C(F)(F)F)no2)c(=O)[nH]1 | inconclusive: 0.058 µM [inhibitor, partial curve, poor fit]
Cc1c(NC(=O)OCCSc2nc(N(C)C)nc(N(C)C)n2)sc(=S)n1C | inactive
Cc1csc2c(=O)sc(NC(=O)c3ccc(F)cc3)nc12 | inactive
COC(=O)CSc1nc2ccccc2nc1SCC(=O)OC | inactive
C1CCC(C2C3=C(NC4NCNN42)C2=C(CCCC2)CCC3)CC1 (stereo not drawn) | inactive
CN(c1ccc(C(=O)N/N=C/c2cccc([N+](=O)[O-])c2)cc1)S(=O)(=O)c1ccccc1 | inconclusive: 11.2 µM [inhibitor, partial curve, poor fit]
O=c1cc(CO)oc(C(Nc2ccccn2)c2ccc(C(F)(F)F)cc2)c1O (stereo not drawn) | inactive
O=C1CN(C(=O)COc2ccccc2F)c2ccccc2N1 | inactive
COc1ccc(NC(=O)c2ccc(F)cc2)cc1S(=O)(=O)Nc1cc(C)ccc1Br | inconclusive: 29.1 µM [inhibitor, single point]
COc1cccc(CCNC(=O)Cn2c(-c3cccs3)cc3ccccc32)c1 | inactive
COc1ccc(C(=O)Oc2ccc3c(c2)OCO3)cc1OC | inconclusive: 29.1 µM [activator, single point]
COc1ccc(-c2cc(-c3ccc(N)cc3)nc(N)c2C#N)cc1OC | inconclusive: 25.1 µM [inhibitor, single point]
COc1cc(C(=O)NCCCN(C)C)ccc1OCC(=O)Nc1cccc(C(F)(F)F)c1 | inconclusive: 6.31 µM [inhibitor, partial curve, poor fit]
COc1cc(C(=O)NCC(=O)OCC(=O)N2CCc3ccccc32)cc(OC)c1OC | inconclusive: 2.82 µM [activator, partial curve]
CCOC(=O)c1c(C)nc(C)c(C(=O)OCC)c1-c1cccc(N)c1 | inconclusive: 14.1 µM [inhibitor, single point]
CC(=Nc1ccc(C)cc1)c1sc2ccccc2c1O | inconclusive: 29.1 µM [inhibitor, partial curve, poor fit]
O=C(O)c1ccc(NC(=S)NC(=O)C(c2ccccc2)c2ccccc2)cc1 | inactive
CN1CCC(=NNC(=O)CN(c2ccc(Oc3ccccc3)cc2)S(C)(=O)=O)CC1 | inconclusive: 31.6 µM [activator, single point]
Cc1ccc(C)c(C(=O)Cn2ncc(Cl)c(Cl)c2=O)c1 | active: 10 µM
CNc1oc(-c2ccc(C)cc2)nc1P(=O)(c1ccccc1)c1ccccc1 | inconclusive: 8.91 µM [inhibitor, partial curve, poor fit]

Compound | Potency
CC(Cc1ccccc1)NC(=O)/C=C/c1ccc([N+](=O)[O-])cc1 (stereo not drawn) | inactive
O=C(c1ccc2c(c1)N(Cc1ccccc1)C(=O)c1ccccc1S2(=O)=O)N1CCCC1 | inactive
CC(C)(C)C(=O)NC(=S)NNC(=O)c1sc2ccccc2c1Cl | inconclusive: 5.01 µM [inhibitor, full curve]
CCc1nnc(NC(=O)c2ccc(S(=O)(=O)N(CC)Cc3ccccc3)cc2)o1 | inconclusive: 11.2 µM [inhibitor, partial curve, poor fit]
CN(C)c1ccc(C(=O)/C=C/c2ccc(Br)cc2)cc1 | inactive
CCCCCC(=O)N1c2ccccc2C(C)(c2ccccc2)CC1(C)C (stereo not drawn) | inactive
CCN(CC)CCN(C(=O)c1ccc(C(=O)c2ccccc2)cc1)c1nc2cc3c(cc2s1)OCO3 | inactive
CCc1ccc(C(=O)c2cn(CC(=O)Nc3ccc(F)c(F)c3)c3cc(OC)c(OC)cc3c2=O)cc1 | inactive
CCOC(=O)c1nc(C)nc(Sc2n[nH]c(-c3cc(Cl)cc(Cl)c3)n2)c1C | inactive
Cc1cc([N+](=O)[O-])nn1CC(=O)N1c2ccccc2CC1C (stereo not drawn) | inconclusive: 3.16 µM [inhibitor, single point]
O=C(c1ccccc1F)N1CCN(c2ccc([N+](=O)[O-])c(NCc3cccnc3)c2)CC1 | inconclusive: 8.91 µM [inhibitor, partial curve]
O=Cc1c(NCc2cccc(F)c2)c2ccccc2[nH]c1=O | inactive
COc1ccc(NC(=O)c2cccc(OS(=O)(=O)N(C)C)c2)cc1 | inconclusive: 4.47 µM [activator, full curve, poor fit]
Cc1cc(Nc2nc3ccccc3nc2Cl)n(-c2ccccc2C)n1 | inconclusive: 9.2 µM [inhibitor, partial curve, poor fit]
CC(C)(C)C(=O)Nc1cc(C(F)(F)F)ccc1-n1ccnc1 | inconclusive: 6.31 µM [inhibitor, single point]
CCC(=O)NC(=S)Nc1ccc(Cl)cn1 | inconclusive: 11.2 µM [activator, partial curve, poor fit]
COc1ccc2nc(NC(=O)CSc3nnc(N)s3)sc2c1 | inactive
Cc1ccc(Cl)cc1N1CCN(C(=O)C2CCN(S(=O)(=O)c3c(C)nn(C)c3C)CC2)CC1 | inconclusive: 10 µM [inhibitor, partial curve, poor fit]
O=C(c1cccn(Cc2ccc(Cl)c(Cl)c2)c1=O)N1CCOCC1 | inactive
Cc1ncoc1C(=O)N1CCc2c([nH]c3ccccc23)C1C1CCCCC1 (stereo not drawn) | inactive
CC1=NN(C(=O)c2ccc(Cl)cc2)C(O)(c2ccccc2)C1 (stereo not drawn) | inactive
Cc1cc2oc(=O)cc(CN3CCOCC3)c2cc1C | inconclusive: 0.0158 µM [activator, full curve, poor fit]
Cc1c(NC(=O)c2cc(-c3ccc(Cl)s3)nc3ccccc23)c(=O)n(-c2ccccc2)n1C | inconclusive: 0.794 µM [inhibitor, partial curve, poor fit]
